In PubChem BioAssay AID2685 (National Center for Advancing Translational Sciences (NCATS), 2010):
The list shows a part of the results. The main result of the screen is listed elsewhere. These columns were measured beside it and carry no call. The list favours compounds with an active or inconclusive main result. Potencies come from curve fits of mixed quality, noted in brackets.

Assay: qHTS Assay for Lipid Storage Modulators in Drosophila S3 Cells;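 as to cell number change: cells counted by Cell Tracker Red CMTPX staining in the red channel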
Conditions: BODIPY lipid droplet fluorescence, 18-24 h; for cell number change: measured here: cell count max response, cells fed with added oleic acid
Method in brief: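 Drosophila S3 cells loaded with oleic acid (400 uM, as added) and compounds at several concentrations; lipid droplets imaged by 488-nm laser-scanning cytometry, 500–530 nm intensity and object ratio to cell channel. Percent activity normalized to 20 uM Triacsin C.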

[1] = measured here: cell number channel AC50, cells fed with added oleic acid
[2] = measured here: lipid fluorescence (Fed channel) AC50, cells fed with added oleic acid

| SMILES | cell number change [%] | AC50 [1] | AC50 [2] |
| --- | --- | --- | --- |
| Cc1nc(N2CCN(c3ccccn3)CC2)c2c(C)c(C(=O)Nc3c(F)cc(F)cc3Br)sc2n1 | 33.9 | 0.0326 µM [rising, full curve, poor fit] | 18.4 µM [falling, partial curve] |
| Cc1ccc(C2c3c(oc4ccccc4c3=O)C(=O)N2c2nncs2)cc1 (configuration not stated) | – | 0.00461 µM [falling, full curve, poor fit] | – |
| CN1C(=O)Cn2c1nc1ccccc12 | 10.8 | – | – |
| O=C(NCCc1cccnc1)c1cc(COc2ccc(F)cc2Cl)on1 | -25.2 | – | – |
| Cc1cc(N2CCCC2)ccc1NC(=O)CN1C(=O)NC(C)(c2ccccc2)C1=O (configuration not stated) | 25.2 | – | 29.1 µM [rising, single point] |
| O=C(CCSCCC(=O)NCc1ccco1)NCc1ccco1 | -21.5 | 0.82 µM [falling, full curve, poor fit] | 20.6 µM [falling, single point] |
| Cc1nonc1OCCn1nnnc1N | -76.1 | 18.4 µM [falling, partial curve, poor fit] | 2.06 µM [falling, full curve] |
| O=C(NCn1cnccc1=O)c1ccccc1 | – | – | 18.4 µM [falling, partial curve] |
| COc1ccccc1NC(=O)N[C@@H](Cc1c[nH]c2ccccc12)C(=O)NN | 30.6 | 0.0517 µM [rising, full curve, poor fit] | – |
| Cc1cccc(NC(=O)CSc2nnc(NC(=O)c3ccco3)s2)c1 | -7.29 | 5.8 µM [falling, single point] | 3.66 µM [falling, partial curve] |
| O=C1NC(=S)SC1=C1CCCC1 | -2.42 | 0.58 µM [falling, full curve] | 6.51 µM [falling, single point] |
| CCOC(=O)c1c(-c2cccs2)csc1NC(=O)CNCCN1CCOCC1 | -11.2 | – | 0.82 µM [rising, single point] |
| Cc1ccc(CNC(=O)C(=O)NCC2OCCCN2S(=O)(=O)c2cccs2)cc1 (configuration not stated) | 39.3 | – | 14.6 µM [rising, partial curve, poor fit] |
| O=C(CN(CCN1CCOCC1)C(=O)Cn1nnc(-c2ccc(F)cc2)n1)NC1CCCCC1 | 9.75 | 0.0461 µM [rising, full curve, poor fit] | – |
| CC(N)(C(=O)O)c1cccc(OCc2cccc(Cl)c2)c1 (configuration not stated) | 30.7 | – | – |
| COc1ccc(S(=O)(=O)N2CCCCCC2)cc1NC(=O)c1c2c(nc3ccccc13)CCN(Cc1ccccc1)C2 | 6.13 | – | 23.1 µM [falling, partial curve] |

Single values from the list.
Under AC50 [2], O=C(NCn1cnccc1=O)c1ccccc1 has 18.4 µM [falling, partial curve]
Under AC50 [1], Cc1ccc(C2c3c(oc4ccccc4c3=O)C(=O)N2c2nncs2)cc1 (configuration not stated) has 0.00461 µM [falling, full curve, poor fit]
